# Assay results taken from article PMC11345648.
# Sequences of proteins named here, by UniProt entry; tags and fusion partners are left off.
# UniProt P42568: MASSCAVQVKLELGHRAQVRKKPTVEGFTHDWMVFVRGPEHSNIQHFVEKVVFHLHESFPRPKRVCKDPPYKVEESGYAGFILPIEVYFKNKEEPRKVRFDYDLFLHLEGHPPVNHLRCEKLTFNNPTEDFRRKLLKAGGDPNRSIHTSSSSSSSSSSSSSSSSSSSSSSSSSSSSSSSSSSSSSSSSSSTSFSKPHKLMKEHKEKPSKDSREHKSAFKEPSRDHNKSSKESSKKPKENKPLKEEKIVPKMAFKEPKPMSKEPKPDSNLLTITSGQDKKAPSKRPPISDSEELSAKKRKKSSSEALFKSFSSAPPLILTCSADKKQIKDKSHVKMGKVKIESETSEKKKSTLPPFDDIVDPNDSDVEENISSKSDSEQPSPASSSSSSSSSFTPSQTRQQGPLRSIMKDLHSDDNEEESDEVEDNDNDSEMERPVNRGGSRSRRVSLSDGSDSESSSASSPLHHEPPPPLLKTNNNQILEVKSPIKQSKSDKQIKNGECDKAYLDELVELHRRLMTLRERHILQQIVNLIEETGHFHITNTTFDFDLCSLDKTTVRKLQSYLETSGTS
# UniProt Q9UBL3: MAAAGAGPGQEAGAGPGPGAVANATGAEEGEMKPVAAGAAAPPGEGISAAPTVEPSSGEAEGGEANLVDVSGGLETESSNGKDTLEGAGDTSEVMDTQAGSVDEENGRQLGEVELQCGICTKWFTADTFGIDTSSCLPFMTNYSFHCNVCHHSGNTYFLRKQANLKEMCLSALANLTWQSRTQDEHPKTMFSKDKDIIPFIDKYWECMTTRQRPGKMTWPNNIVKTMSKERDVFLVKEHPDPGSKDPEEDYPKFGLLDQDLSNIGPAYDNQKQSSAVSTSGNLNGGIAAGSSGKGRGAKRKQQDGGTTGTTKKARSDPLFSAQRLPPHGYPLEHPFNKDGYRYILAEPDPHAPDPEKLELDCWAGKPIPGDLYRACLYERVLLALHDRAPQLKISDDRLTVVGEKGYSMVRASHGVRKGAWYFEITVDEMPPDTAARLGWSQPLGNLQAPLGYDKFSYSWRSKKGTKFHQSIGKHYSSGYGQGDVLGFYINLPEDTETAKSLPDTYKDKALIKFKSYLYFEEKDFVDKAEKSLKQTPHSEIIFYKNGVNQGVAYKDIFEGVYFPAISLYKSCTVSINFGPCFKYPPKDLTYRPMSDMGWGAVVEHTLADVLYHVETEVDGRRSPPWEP
# UniProt O75475: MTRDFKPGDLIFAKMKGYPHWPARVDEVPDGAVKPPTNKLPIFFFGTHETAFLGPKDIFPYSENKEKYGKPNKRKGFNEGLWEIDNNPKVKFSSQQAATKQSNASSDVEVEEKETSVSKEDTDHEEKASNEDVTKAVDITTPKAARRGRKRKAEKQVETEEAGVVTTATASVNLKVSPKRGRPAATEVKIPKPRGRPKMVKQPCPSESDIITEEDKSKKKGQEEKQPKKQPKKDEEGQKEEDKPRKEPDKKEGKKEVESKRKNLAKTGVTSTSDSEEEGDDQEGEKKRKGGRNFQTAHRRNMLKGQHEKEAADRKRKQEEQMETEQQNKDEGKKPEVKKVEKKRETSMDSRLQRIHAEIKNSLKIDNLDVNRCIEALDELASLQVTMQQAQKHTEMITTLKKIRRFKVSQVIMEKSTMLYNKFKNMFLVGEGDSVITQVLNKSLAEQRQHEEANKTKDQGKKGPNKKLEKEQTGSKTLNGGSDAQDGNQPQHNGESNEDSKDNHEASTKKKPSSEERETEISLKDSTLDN
# UniProt O00255: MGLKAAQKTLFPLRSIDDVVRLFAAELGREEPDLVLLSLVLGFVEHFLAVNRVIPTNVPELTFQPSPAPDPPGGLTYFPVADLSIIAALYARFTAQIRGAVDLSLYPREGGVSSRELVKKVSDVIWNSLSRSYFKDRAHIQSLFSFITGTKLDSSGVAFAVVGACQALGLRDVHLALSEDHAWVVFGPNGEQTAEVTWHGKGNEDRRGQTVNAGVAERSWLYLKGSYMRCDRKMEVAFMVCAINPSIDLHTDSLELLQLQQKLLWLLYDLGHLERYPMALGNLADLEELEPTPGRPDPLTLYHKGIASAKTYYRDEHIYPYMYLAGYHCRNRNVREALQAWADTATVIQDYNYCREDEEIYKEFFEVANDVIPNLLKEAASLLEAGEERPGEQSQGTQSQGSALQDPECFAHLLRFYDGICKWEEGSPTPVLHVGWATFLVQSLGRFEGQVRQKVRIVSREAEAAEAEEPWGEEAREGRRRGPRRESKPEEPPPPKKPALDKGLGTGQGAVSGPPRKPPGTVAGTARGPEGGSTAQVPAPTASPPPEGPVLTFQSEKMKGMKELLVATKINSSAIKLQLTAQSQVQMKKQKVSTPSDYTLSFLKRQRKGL
# UniProt Q9C005: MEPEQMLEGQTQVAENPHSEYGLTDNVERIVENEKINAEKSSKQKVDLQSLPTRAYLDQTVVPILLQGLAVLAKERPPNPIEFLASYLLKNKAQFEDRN
# UniProt Q9UMN6: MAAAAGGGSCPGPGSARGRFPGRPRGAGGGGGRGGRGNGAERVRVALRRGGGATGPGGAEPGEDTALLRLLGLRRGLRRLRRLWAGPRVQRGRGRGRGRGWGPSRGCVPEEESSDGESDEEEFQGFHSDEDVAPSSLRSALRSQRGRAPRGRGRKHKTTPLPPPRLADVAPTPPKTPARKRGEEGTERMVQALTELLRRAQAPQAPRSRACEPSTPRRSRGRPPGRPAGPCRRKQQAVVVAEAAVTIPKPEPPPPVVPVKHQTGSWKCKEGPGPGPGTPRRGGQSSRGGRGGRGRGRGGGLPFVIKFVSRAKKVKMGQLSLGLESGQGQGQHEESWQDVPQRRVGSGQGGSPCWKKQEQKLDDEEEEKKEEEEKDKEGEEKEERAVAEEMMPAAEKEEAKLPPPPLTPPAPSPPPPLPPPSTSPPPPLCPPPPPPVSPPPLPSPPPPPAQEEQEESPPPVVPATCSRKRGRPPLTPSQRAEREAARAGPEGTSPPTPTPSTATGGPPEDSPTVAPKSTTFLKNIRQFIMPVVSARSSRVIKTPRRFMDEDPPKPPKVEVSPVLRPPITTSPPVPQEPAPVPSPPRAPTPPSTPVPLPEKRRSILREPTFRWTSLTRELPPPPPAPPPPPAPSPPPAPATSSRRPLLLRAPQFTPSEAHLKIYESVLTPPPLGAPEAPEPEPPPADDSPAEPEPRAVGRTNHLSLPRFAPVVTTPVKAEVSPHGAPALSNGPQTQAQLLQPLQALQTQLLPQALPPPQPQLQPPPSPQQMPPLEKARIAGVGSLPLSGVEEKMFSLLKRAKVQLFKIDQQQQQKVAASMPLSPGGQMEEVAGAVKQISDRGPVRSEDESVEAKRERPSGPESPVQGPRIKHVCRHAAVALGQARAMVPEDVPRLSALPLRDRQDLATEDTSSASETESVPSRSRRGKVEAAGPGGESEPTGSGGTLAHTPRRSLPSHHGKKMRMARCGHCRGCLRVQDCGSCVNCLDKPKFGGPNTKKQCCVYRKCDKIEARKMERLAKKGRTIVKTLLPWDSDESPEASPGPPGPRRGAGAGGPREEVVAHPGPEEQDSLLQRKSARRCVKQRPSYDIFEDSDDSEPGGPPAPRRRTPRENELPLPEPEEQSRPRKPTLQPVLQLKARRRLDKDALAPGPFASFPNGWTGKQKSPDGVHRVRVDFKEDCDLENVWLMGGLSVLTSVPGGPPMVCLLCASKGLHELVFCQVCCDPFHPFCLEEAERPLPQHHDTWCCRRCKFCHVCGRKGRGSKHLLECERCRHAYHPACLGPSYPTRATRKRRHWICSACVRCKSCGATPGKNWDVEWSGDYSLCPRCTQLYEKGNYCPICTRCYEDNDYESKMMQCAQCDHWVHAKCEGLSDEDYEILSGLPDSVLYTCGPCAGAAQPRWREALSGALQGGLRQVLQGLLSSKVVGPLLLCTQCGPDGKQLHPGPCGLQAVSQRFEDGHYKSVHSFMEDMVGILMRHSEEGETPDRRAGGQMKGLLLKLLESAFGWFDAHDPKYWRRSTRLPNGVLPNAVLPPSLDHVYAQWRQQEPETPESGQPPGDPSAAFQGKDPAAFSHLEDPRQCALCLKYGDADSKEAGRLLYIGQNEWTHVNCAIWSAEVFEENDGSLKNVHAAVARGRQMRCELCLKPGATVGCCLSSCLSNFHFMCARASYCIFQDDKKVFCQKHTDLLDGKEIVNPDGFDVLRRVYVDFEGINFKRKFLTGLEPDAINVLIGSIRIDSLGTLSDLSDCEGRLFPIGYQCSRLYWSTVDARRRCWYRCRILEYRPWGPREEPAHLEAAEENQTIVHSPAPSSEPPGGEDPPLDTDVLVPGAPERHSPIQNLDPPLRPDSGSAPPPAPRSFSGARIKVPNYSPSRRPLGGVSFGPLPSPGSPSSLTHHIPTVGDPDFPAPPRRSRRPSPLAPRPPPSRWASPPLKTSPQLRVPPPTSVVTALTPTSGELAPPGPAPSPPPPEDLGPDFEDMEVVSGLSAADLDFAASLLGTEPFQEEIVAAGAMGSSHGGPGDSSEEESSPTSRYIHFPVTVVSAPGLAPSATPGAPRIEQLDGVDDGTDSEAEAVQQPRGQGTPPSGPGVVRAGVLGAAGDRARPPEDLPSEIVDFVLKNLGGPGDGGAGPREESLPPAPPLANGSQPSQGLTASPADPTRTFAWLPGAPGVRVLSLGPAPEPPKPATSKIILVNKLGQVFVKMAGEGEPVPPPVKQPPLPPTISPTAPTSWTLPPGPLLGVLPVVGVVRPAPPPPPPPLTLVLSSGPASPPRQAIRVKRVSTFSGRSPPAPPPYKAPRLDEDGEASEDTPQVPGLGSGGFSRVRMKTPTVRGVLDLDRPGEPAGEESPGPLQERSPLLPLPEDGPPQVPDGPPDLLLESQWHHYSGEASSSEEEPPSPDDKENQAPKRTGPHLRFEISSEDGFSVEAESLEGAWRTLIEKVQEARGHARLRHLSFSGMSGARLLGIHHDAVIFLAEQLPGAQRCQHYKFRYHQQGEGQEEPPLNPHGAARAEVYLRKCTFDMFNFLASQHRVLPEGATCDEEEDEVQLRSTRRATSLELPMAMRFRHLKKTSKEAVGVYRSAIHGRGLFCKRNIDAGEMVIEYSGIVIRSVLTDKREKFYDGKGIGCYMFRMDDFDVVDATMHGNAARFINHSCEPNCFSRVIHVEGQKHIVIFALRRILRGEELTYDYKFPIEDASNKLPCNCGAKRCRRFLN
# UniProt Q15291: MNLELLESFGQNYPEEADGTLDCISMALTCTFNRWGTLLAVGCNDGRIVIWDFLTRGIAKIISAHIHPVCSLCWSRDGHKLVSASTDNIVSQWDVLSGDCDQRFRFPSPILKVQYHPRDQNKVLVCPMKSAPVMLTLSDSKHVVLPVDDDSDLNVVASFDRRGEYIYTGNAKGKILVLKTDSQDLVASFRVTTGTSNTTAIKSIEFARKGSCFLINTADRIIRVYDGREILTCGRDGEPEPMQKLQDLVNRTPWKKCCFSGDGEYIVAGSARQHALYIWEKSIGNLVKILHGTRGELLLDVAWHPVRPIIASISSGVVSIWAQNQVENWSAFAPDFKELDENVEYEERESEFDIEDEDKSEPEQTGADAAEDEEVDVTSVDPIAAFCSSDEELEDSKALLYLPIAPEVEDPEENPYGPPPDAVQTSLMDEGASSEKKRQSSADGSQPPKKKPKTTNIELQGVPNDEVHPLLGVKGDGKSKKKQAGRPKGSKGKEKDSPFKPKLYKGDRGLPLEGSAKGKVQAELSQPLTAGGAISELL
# No constants are given. Whether binding was seen depends on the method and setting. Binding seen in cells or lysates may run through a third protein. These calls come from enrichment with a bait or labelling near it, and not all partners need be listed.
# Biological target: AF9 (human (endogenous in HEL)) (UniProt P42568)
# Test: affinity purification with mass spectrometry; large-scale coimmunoprecipitation from nuclear extract of HEL cells with the AF9-N antibody (rabbit IgG as control); immunoprecipitated proteins analysed by mass spectrometry
row,Substance,binding
1,ASH2L (from UniProt Q9UBL3 1-628),binds
2,lens epithelium derived growth factor (from UniProt O75475 1-530),binds
3,menin (from UniProt O00255 1-610),binds

# Results, then the substance that gave them:
row,binding,Substance
1,binds,DPY30 (from UniProt Q9C005 1-99)
2,binds,KMT2B (from UniProt Q9UMN6 1-2715)
3,binds,RBBP5 (from UniProt Q15291 1-538)
